The supplement of paper PMC5949888
Most values lie at the floor of the assay. Slopes are relative: functional sequences can read slightly below zero.

These substances were tested on Saccharomyces cerevisiae PS128 hsf1 delta, HSF1(1-493) fusion (assay: growth estimate (transactivation domain function in HSF1 fusion, heat-shock survival) (a.u. (slope of normalised read count over time)); higher = stronger growth at 37°C, i.e. more transactivation activity). Conditions: library: random library.

| Substance | growth estimate |
| --- | --- |
| KRKGRCRYRGVTKSRVFHVG | < -0.25 |
| KRLFTCYRVCPIKYHSLIMA | < -0.25 |
| KRLGITYRLCMN | < -0.25 |
| KRLLRSNLEPQPSVR | < -0.25 |
| KRLRSDFELMVGPQRDHWP | < -0.25 |
| KRLS | < -0.25 |
| KRLVARPNATLVA | < -0.25 |
| KRQGSPR | < -0.25 |
| KRQR | < -0.25 |
| KRR | < -0.25 |
| KRRMCEYFQKRSIATAAFMP | < -0.25 |
| KRRSMKR | < -0.25 |
| KRSPVR | < -0.25 |
| KRTTSVS | < -0.25 |
| KRVKLDTARGMSASRRPGVA | < -0.25 |
| KRVLNPTQTV | < -0.25 |
| KRVQTVMRLQHGVSISARHS | < -0.25 |
| KRVWGVMPVQRHFMEPFTY | < -0.25 |
| KRWRR | < -0.25 |
| KRYPSGA | < -0.25 |
| KRYTAALNTARAVPAFY | < -0.25 |
| KSA | < -0.25 |
| KSAGITW | < -0.25 |
| KSANAPWDELPTSPVLPLHE | < -0.25 |
| KSCIYEHV | < -0.25 |

Exported with bars between the fields: part of the list above.
Substance | growth estimate
KRRSMKR | < -0.25
KRSPVR | < -0.25

Another view of part of the listing above:
Substance	growth estimate
KRLFTCYRVCPIKYHSLIMA	< -0.25
KRLGITYRLCMN	< -0.25
KRLLRSNLEPQPSVR	< -0.25

Next records follow.

| Substance | growth estimate |
| --- | --- |
| KSCVLRVSCAASVGKKSS | -0.246 |
| KSCWC | < -0.25 |
| KSDAVSPVRHRLTEARWLSP | < -0.25 |
| KSDPIAGFINERLTSKSAVR | < -0.25 |
| KSEAKGTA | < -0.25 |
| KSEFNRTCKACGEI | < -0.25 |
| KSEGGDRAYHIARKELA | < -0.25 |
| KSEVVGGFLSIYGYDVYRDR | < -0.25 |
| KSG | < -0.25 |
| KSGKSNPAGWGSTQT | < -0.25 |
| KSGSDPYVTCAAYAWETFFV | < -0.25 |
| KSGWFW | < -0.25 |
| KSIMELYFVACTTAYRAECF | < -0.25 |
| KSISTTVKEVD | < -0.25 |
| KSKCARSVCRL | < -0.25 |
| KSLEFLVNVYYFTPRIRHGG | < -0.25 |
| KSLFVVLPAQAGDCEISERS | < -0.25 |
| KSLGASCRTSRARNSQPK | < -0.25 |
| KSLQSTP | < -0.25 |
| KSLVCRTAISIRESTCMCSS | < -0.25 |
| KSNTRRRNVFPCSQAGPARF | < -0.25 |
| KSPCCG | < -0.25 |
| KSPCCRAYTRRFVHLCTLGW | < -0.25 |
| KSPIDDPSTLITGIKQHERE | -0.079 |
| KSPYD | < -0.25 |

Some of the entries above in another layout.
KSLVCRTAISIRESTCMCSS
  growth estimate: < -0.25
KSNTRRRNVFPCSQAGPARF
  growth estimate: < -0.25

Later entries:

| Substance | growth estimate |
| --- | --- |
| KSQHLRVRVYCHAETNLIPG | < -0.25 |
| KSQPGVSAHIITQRRAETS | < -0.25 |
| KSRELAIVTVM | < -0.25 |
| KSRLCWKSALGVRIDKVS | < -0.25 |
| KSSL | < -0.25 |
| KSSRA | < -0.25 |
| KSSTPPLSRFYNSPSDAAFL | < -0.25 |
| KSTCIGPLPTRGRSCMISCG | < -0.25 |
| KTAR | < -0.25 |
| KTCDRNKNNATP | < -0.25 |
| KTCMGPDDGEALFNLRR | < -0.25 |
| KTGSNNECLSELVWD | < -0.25 |
| KTLHGTFQLGRLRTIFLGWP | < -0.25 |
| KTLIPRAADHGLRIVLA | < -0.25 |
| KTLSAVAISEERELMLAQ | < -0.25 |
| KTNRHEGQ | < -0.25 |
| KTRCGKEAHTNRVF | < -0.25 |
| KTRGYTAVAYVN | < -0.25 |
| KTSASRYVRGRSYQCGSFLP | < -0.25 |
| KTTRIKLKQPLP | < -0.25 |
| KTVLFIRKLVPSTIFINEET | < -0.25 |
| KTVLTVDITGASSLGFLLFR | < -0.25 |
| KTWHSSRRIA | < -0.25 |
| KTYRMTTPRGSDLGSL | < -0.25 |
| KVA | < -0.25 |

| Substance | growth estimate |
| --- | --- |
| KVAEGVSRRRRTPATSAAVS | < -0.25 |
| KVANHSSSEASDLATICYGG | < -0.25 |
| KVCVPTLRCVLEDMGSVRSG | < -0.25 |
| KVDSCRGHMKA | < -0.25 |
| KVE | < -0.25 |
| KVELK | < -0.25 |
| KVFLWRVLETW | < -0.25 |
| KVGGGRGYLLCTRRGYTDSE | < -0.25 |
| KVGGVKKCPQGCHYLQLILF | < -0.25 |
| KVGSGPFGPSEQIVPPCCLI | < -0.25 |
| KVIDAPCYAQECGTAGHHYN | < -0.25 |
| KVIMILEASYECLASGSDSM | < -0.25 |
| KVKSRSVYSQRLITVILRVT | < -0.25 |
| KVPIRSD | < -0.25 |
| KVQGSDTDVTRGTQPPSHLN | < -0.25 |
| KVQGSRINVGLS | < -0.25 |
| KVRKA | < -0.25 |
| KVRMLLGYTASTCNTHIKHA | < -0.25 |
| KVRPT | -0.245 |
| KVRSQGRL | < -0.25 |
| KVSPTEEPVMFG | < -0.25 |
| KVSVLGSPICVQIR | < -0.25 |
| KVT | < -0.25 |
| KVTFNSEKRSTPGRAPAWKN | < -0.25 |
